Assay results reported in PMC7819943, “Rice protein-binding microarrays: a tool to detect cis-acting elements near promoter regions in rice”.
The list shows a part of the results.

Amino acid sequences for entries named in this document (tags omitted).
UniProt Q0JBA9, entry or part of it: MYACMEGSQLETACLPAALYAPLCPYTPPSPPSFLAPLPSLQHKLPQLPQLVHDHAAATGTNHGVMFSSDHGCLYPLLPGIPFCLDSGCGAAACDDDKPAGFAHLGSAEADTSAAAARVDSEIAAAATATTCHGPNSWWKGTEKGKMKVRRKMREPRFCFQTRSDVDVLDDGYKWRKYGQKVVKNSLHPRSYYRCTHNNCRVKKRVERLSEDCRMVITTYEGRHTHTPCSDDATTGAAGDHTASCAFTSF

biological target: OsWRKY34 (Oryza sativa, UniProt Q0JBA9 1-250); experiment: protein-binding microarray (RPBM); PBS, 2% BSA, 51.3 ng/ul salmon testes DNA, 50 uM zinc acetate, 200 nM TF, 25 C, 1 h; high values mean tight binding; details: protein: recombinant; tags: N-terminal polyhistidine and DsRed monomer fusion (pET32a); label: CyDye5-dUTP incorporated in the synthesized complementary strand; 3' TTTTT single-stranded linker to array surface; dsDNA, one strand shown
In short: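 Transcription factors were made in E. coli BL21-CodonPlus as N-terminal fusions to a polyhistidine tag and DsRed, then purified on Ni–NTA. After primer extension with Cy5-dUTP and blocking with 2% BSA, a custom Agilent array was exposed for 1 h at 25 °C to 200 nM protein in PBS, 2% BSA, salmon testes DNA and 50 µM zinc acetate. Washed arrays were scanned on an Axon 4000B, and the binding signal is per-feature fluorescence intensity in arbitrary units.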

Sequence | binding signal
ACCTTCTGCCTGCCTGCGCCGGATTCGCCTTCCTCCCGATCGGAGTCACCTAGTGCAG | 11900 fluorescence intensity (a.u.)
TCGCGCCTCCGACCGTCCGATCAGCTGCCAACCCCGGGCTCGGAGTCACCTAGTGCAG | 8400 fluorescence intensity (a.u.)
GCCTCTCTCGTAGTCTCAGTTCTCCTCCTACGTTCTACTGCGGAGTCACCTAGTGCAG | 10800 fluorescence intensity (a.u.)
AGATTTTGGGTGTGTTTGGTTGCTTGCATTGTTTTAGTCTCGGAGTCACCTAGTGCAG | 9320 fluorescence intensity (a.u.)
GGGGTGTGTGTGCTCGGCTACTCCGGTGGGTCGGGTCTGGCGGAGTCACCTAGTGCAG | 12700 fluorescence intensity (a.u.)
TCAGTTTGCCCACCGCCGCCTCCGCCTTCGCCGCCGCCATCGGAGTCACCTAGTGCAG | 8180 fluorescence intensity (a.u.)
AATATTTTTTTTCTCAATCATTTCTTATCATTATTATTATCGGAGTCACCTAGTGCAG | 8280 fluorescence intensity (a.u.)
TTTTATGGTGTTCTATAGTATAGTCAATCGACTTTTCATCCGGAGTCACCTAGTGCAG | 8130 fluorescence intensity (a.u.)
TTTCTCTTTATTTCTTTCTCCCATTCTTCCTTTCTCTTTACGGAGTCACCTAGTGCAG | 8890 fluorescence intensity (a.u.)
TGCAACTAACGCCTCACATGGTACACAGCACAGCAGCAGCCGGAGTCACCTAGTGCAG | 8400 fluorescence intensity (a.u.)
GGGTAATTCGTCTGGTATTGAAAGTTCCGGGTGAACAATACGGAGTCACCTAGTGCAG | 8310 fluorescence intensity (a.u.)
GCACACATCTCTCTCGCTCTACAACTCACCACCAAAGAGGCGGAGTCACCTAGTGCAG | 11800 fluorescence intensity (a.u.)
CCCGCACTTCCTTGCTTGGTGTGATCGGCCGCTTCCAATTCGGAGTCACCTAGTGCAG | 8460 fluorescence intensity (a.u.)
GACCCGTTCACACCACTACGCTTCCAGCTATAGGCAGTATCGGAGTCACCTAGTGCAG | 8410 fluorescence intensity (a.u.)
CAACTGTGCCGCCGTCTCGCCGTTCCAATGGTAAGCACACCGGAGTCACCTAGTGCAG | 8470 fluorescence intensity (a.u.)
TCAGTAAAGTCTCTTCTCTTGCTCATGCTAGCCCTGTCATCGGAGTCACCTAGTGCAG | 10400 fluorescence intensity (a.u.)
TCGTGCGCCACGCGTCGTACGCGCGTGGGCTTCTTTCCTCCGGAGTCACCTAGTGCAG | 9650 fluorescence intensity (a.u.)
GCCTCATACTCCTTTTTTTTTTGTCTTTTTTGGTGCTCTACGGAGTCACCTAGTGCAG | 10300 fluorescence intensity (a.u.)
TTAAGCCCCAACTAACTCTCTCCCTCCAGGACATTTTTTTCGGAGTCACCTAGTGCAG | 8700 fluorescence intensity (a.u.)
ATGCTATTTACCATCCTACGAAGTTTCTGTTTCAGACTCTCGGAGTCACCTAGTGCAG | 8370 fluorescence intensity (a.u.)
TCCATGTACAATTAGTTGACCATTCTTCTAGTTAGCTTCTCGGAGTCACCTAGTGCAG | 9620 fluorescence intensity (a.u.)

Sequence | binding signal
TTATTTTATGAAATGGATCAGTATTGTTTGTCTGTTTGTACGGAGTCACCTAGTGCAG | 8580 fluorescence intensity (a.u.)
AACACTTTGACTTTTACATAGGCCATGTCTCCATCCGAGACGGAGTCACCTAGTGCAG | 12400 fluorescence intensity (a.u.)
TGAAGCTAATGTCCTTGTGTTGCGCTTTCCTTTTGTTCTCCGGAGTCACCTAGTGCAG | 12100 fluorescence intensity (a.u.)
ACCTTTTCTTTCTCGCAGGAGTAGTATTTTTGAGGGTTTGCGGAGTCACCTAGTGCAG | 12900 fluorescence intensity (a.u.)
GGCCTCCTCGTCCTCACAAACTTCTCGTTTTCCTCGTACTCGGAGTCACCTAGTGCAG | 10600 fluorescence intensity (a.u.)
TTTTTGTGTATTGAGCTTGGATTCTGAATCATTGGTTCTTCGGAGTCACCTAGTGCAG | 8480 fluorescence intensity (a.u.)
CGAGAGCGTTTTCCATTCGTGTTATGAGATTAGTTTTTTTCGGAGTCACCTAGTGCAG | 8450 fluorescence intensity (a.u.)
TACCTCCGTCTCAAATAAGTAGTGTCTTTGACTTTTTGTTCGGAGTCACCTAGTGCAG | 13100 fluorescence intensity (a.u.)
AGCCCGCACGTTCGCCGCAATCCAGTTCCTGGCCCAACTACGGAGTCACCTAGTGCAG | 11500 fluorescence intensity (a.u.)
CATTCATCATCTGCATATATATAATCGTCTTCGTCGTCATCGGAGTCACCTAGTGCAG | 12500 fluorescence intensity (a.u.)
CCTACTTAATATAACACCAGCTTTGTTGGCTTCATTTTTTCGGAGTCACCTAGTGCAG | 8200 fluorescence intensity (a.u.)
CTCCGTCCTTAAATATTTGACGTCGTTGACTTTTTTAAACCGGAGTCACCTAGTGCAG | 26000 fluorescence intensity (a.u.)
TATGTCTGTATCGTTTTTCACGCGCGTGCTTCCCAAACTACGGAGTCACCTAGTGCAG | 11200 fluorescence intensity (a.u.)
TCCCATTGAGTTCATAACATCACCCCATTATCATCCCATTCGGAGTCACCTAGTGCAG | 10700 fluorescence intensity (a.u.)
ATTGTGGACTGTTTGACCTCCAGTTTGGACTGTAGGAATTCGGAGTCACCTAGTGCAG | 8060 fluorescence intensity (a.u.)
TTGCCGGGACGCGCCTGGGCGGGCGGGCGGGCTCGAGGTTCGGAGTCACCTAGTGCAG | 10900 fluorescence intensity (a.u.)
TTACTAGCACTAAAATTTTCTATTCCATCCGTTTCAATCACGGAGTCACCTAGTGCAG | 8840 fluorescence intensity (a.u.)
TCGCCTTGTCCGCGCGTGCGCCACCGTTTCCACCCAGATTCGGAGTCACCTAGTGCAG | 11900 fluorescence intensity (a.u.)
CTCTTTGCTGCATGTTGTTCGACCTTTTTACTTACATATTCGGAGTCACCTAGTGCAG | 11000 fluorescence intensity (a.u.)
GTCCTGTTCTTGACTTCTCGTCTACTTACTTGGTAGCTTACGGAGTCACCTAGTGCAG | 9870 fluorescence intensity (a.u.)
TTTTCCGACCGTTTCCGACCGTTTTCATCCCTAGCCCTGACGGAGTCACCTAGTGCAG | 8490 fluorescence intensity (a.u.)

Sequence | binding signal
AAGATTTGTGATGTTACTTTATTTGTGATGTGGATTTGGGCGGAGTCACCTAGTGCAG | 9570 fluorescence intensity (a.u.)
CACAAGCTTTCTGTCCACCCCTAACCACATGTAAATGCCTCGGAGTCACCTAGTGCAG | 9300 fluorescence intensity (a.u.)
ACCCTCGCTCTGCCCGTCGATCTCCGTCGCCTTCTGATCCCGGAGTCACCTAGTGCAG | 9570 fluorescence intensity (a.u.)
AGAAGTCATATTCCTTTGAGAGTGTTGTGTGCTTGTTTTGCGGAGTCACCTAGTGCAG | 9850 fluorescence intensity (a.u.)
TTTATTAAACCTAGTTAATCCATTGTTAGCAAATATTTAACGGAGTCACCTAGTGCAG | 23300 fluorescence intensity (a.u.)
TGGTGGTGGTGGATGAGGGAGCGACAATTTGGGAGGAGGTCGGAGTCACCTAGTGCAG | 10800 fluorescence intensity (a.u.)
TAACTTTTTCATCACATCAACACTTTCCTACACACGTAAACGGAGTCACCTAGTGCAG | 8300 fluorescence intensity (a.u.)
TACTATTCCTTGTACTTTTACATCTCTTACTCTTAGTGATCGGAGTCACCTAGTGCAG | 10300 fluorescence intensity (a.u.)
GTGGGTTCTTTGTGGGGTCTCTTATAGTTTTCACTGCCAGCGGAGTCACCTAGTGCAG | 20500 fluorescence intensity (a.u.)
CGCCATGCCCCGCCGCAACGCCGTCTCCTGGACCACCCTCCGGAGTCACCTAGTGCAG | 9600 fluorescence intensity (a.u.)
GCTCTTTTTTTTTATAAAATATATATTCCGTCTCAATTTTCGGAGTCACCTAGTGCAG | 9230 fluorescence intensity (a.u.)
ACAAATCTGTAGCCCACTGCCATTCTCTCTCCTCATTTATCGGAGTCACCTAGTGCAG | 8150 fluorescence intensity (a.u.)
CCCCTCCATGACTTGTGTTTTGCCATCGCGCGCTTTTGCCCGGAGTCACCTAGTGCAG | 8680 fluorescence intensity (a.u.)
TTCGTTGTACTTACCATCGTTGTTTAGTTTGATTTTTTTTCGGAGTCACCTAGTGCAG | 8950 fluorescence intensity (a.u.)
TACTGTTCATATCCAATGTTTAACCATCCGTCTTATCTAACGGAGTCACCTAGTGCAG | 9360 fluorescence intensity (a.u.)
TGGGAGGGTTTCTGATCATCAGCTGTCCTCTTTACCGGCACGGAGTCACCTAGTGCAG | 11300 fluorescence intensity (a.u.)
TATTTGGCTGTATTGGTTATTTCTATTATTCTATTCAATTCGGAGTCACCTAGTGCAG | 11100 fluorescence intensity (a.u.)
CTTTGCACCCCATTTTCGGCTGTGTTTAGTTCACGTCAAACGGAGTCACCTAGTGCAG | 8660 fluorescence intensity (a.u.)
TTTTCACAGAAATCAGTCTATTTCTACTTCTTACCGATTTCGGAGTCACCTAGTGCAG | 8100 fluorescence intensity (a.u.)
TATACTACTCTATCTGTTTCATGTTATAAAACGTTTTGACCGGAGTCACCTAGTGCAG | 9660 fluorescence intensity (a.u.)
GCGACTATGGTTTGTGTGTGTTGTATCATTACCTAATTAGCGGAGTCACCTAGTGCAG | 10800 fluorescence intensity (a.u.)

Sequence | binding signal
GGGTCTTAGGTTCTTAGCGCTTTTGTTTGACTCCTGATCGCGGAGTCACCTAGTGCAG | 8160 fluorescence intensity (a.u.)
AGCGATGATCTAGCCATAAATCTTTCCGTTGACTCTCGCGCGGAGTCACCTAGTGCAG | 10900 fluorescence intensity (a.u.)
GAATTGGTTCTGTGATGGAAGAACTACATTTGGATGATAACGGAGTCACCTAGTGCAG | 8710 fluorescence intensity (a.u.)
CTCAATTTCCCATCCCCATCCCACCAAAATTCACATGTATCGGAGTCACCTAGTGCAG | 8270 fluorescence intensity (a.u.)
CTCGCCGCCCACCGGATACACCGCCCACCGCCGGGCTGCCCGGAGTCACCTAGTGCAG | 10400 fluorescence intensity (a.u.)
CCACCTCTGCCCTATGACCTCGCCTGTGGTCGCCGCCGCGCGGAGTCACCTAGTGCAG | 10200 fluorescence intensity (a.u.)
GCTTAGACTCTGCCGGTCTGACCGGCCACATACCGCCGGTCGGAGTCACCTAGTGCAG | 8830 fluorescence intensity (a.u.)
TATGCTGGTACCTGTGTTTATTCATGACCTGATTCTCATACGGAGTCACCTAGTGCAG | 8900 fluorescence intensity (a.u.)
GTGTTCACTAAAATGCTATTTTGGGTCTTTTGGGTTAATACGGAGTCACCTAGTGCAG | 8100 fluorescence intensity (a.u.)
CCCGCCGCCGCCTCCTTGATCTCCTCGCCGCACTCTCTGTCGGAGTCACCTAGTGCAG | 11300 fluorescence intensity (a.u.)
TTCATCCTTCGACTGTGTTTATCCTTTTTCTGATGTGTTTCGGAGTCACCTAGTGCAG | 12400 fluorescence intensity (a.u.)
GTCCCATGTTTGAATCTTATGAACCGTTCATATTTTACATCGGAGTCACCTAGTGCAG | 12400 fluorescence intensity (a.u.)
AGCAATATTTGGATCTCTCCTTTTTTTTATTTTTTTATTTCGGAGTCACCTAGTGCAG | 10500 fluorescence intensity (a.u.)
GCGTGTCGTGGCCGCACATCCATATCCATGTCATCCTCATCGGAGTCACCTAGTGCAG | 8660 fluorescence intensity (a.u.)
CCGATCTGAAGTAGGAGTATTAGGTTATGTTCTTTACTCTCGGAGTCACCTAGTGCAG | 8540 fluorescence intensity (a.u.)
GCATCTGCATGCCATCTCATCTCATCTCACATTCCTCACACGGAGTCACCTAGTGCAG | 8830 fluorescence intensity (a.u.)
GTGCTTTGATACAGGGATTGTGCAGGGTGGGGAGGATAGACGGAGTCACCTAGTGCAG | 16100 fluorescence intensity (a.u.)
CCACATCATTTTTCATTCTAGTTGATAGCTTATTTAATGTCGGAGTCACCTAGTGCAG | 9230 fluorescence intensity (a.u.)
ATATGCTAAAAAGTCAACGGTGTCAAACATTTATTAACGGCGGAGTCACCTAGTGCAG | 13400 fluorescence intensity (a.u.)
ATAACCTCTAGCTAGCTCTGCCTGATCCAGTACTGTTAAACGGAGTCACCTAGTGCAG | 8120 fluorescence intensity (a.u.)
TTCCCTCTAAGTTATTGCCGTGTCGTTCTTATCTTAACCACGGAGTCACCTAGTGCAG | 11100 fluorescence intensity (a.u.)

Reprinted at random: 7 records from the list.
Sequence | binding signal
TATGCTGGTACCTGTGTTTATTCATGACCTGATTCTCATACGGAGTCACCTAGTGCAG | 8900 fluorescence intensity (a.u.)
AGCGATGATCTAGCCATAAATCTTTCCGTTGACTCTCGCGCGGAGTCACCTAGTGCAG | 10900 fluorescence intensity (a.u.)
ATATGCTAAAAAGTCAACGGTGTCAAACATTTATTAACGGCGGAGTCACCTAGTGCAG | 13400 fluorescence intensity (a.u.)
ATAACCTCTAGCTAGCTCTGCCTGATCCAGTACTGTTAAACGGAGTCACCTAGTGCAG | 8120 fluorescence intensity (a.u.)
CTCGCCGCCCACCGGATACACCGCCCACCGCCGGGCTGCCCGGAGTCACCTAGTGCAG | 10400 fluorescence intensity (a.u.)
GTCCCATGTTTGAATCTTATGAACCGTTCATATTTTACATCGGAGTCACCTAGTGCAG | 12400 fluorescence intensity (a.u.)
CCCGCCGCCGCCTCCTTGATCTCCTCGCCGCACTCTCTGTCGGAGTCACCTAGTGCAG | 11300 fluorescence intensity (a.u.)
